Measured values published in article PMC7791547, “Biochemical characterization of an E. coli cell division factor FtsE shows ATPase cycles similar to the NBDs of ABC-transporters” (Bioscience Reports, 2021).
Results are given in words; binding and its absence hold for the method and conditions named. Where a sequence is shown, tags or fusion partners need not be part of it.

Target: T1, Full-length FtsE as yeast two-hybrid fusion (pGBT9 and pGAD424) (E. coli), P0A9R7
T1 chain: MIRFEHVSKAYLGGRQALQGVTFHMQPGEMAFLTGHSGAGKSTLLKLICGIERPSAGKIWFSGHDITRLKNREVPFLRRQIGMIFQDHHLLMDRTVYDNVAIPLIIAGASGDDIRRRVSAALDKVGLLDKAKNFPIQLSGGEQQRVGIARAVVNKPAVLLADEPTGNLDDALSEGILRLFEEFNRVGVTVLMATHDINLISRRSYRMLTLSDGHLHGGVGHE
Test: two-hybrid; yeast two-hybrid, full-length FtsE in pGBT9 and pGAD424, growth in histidine-deficient media
Conditions: remark: other sources report otherwise

binding: no binding
B1: Full-length FtsE as yeast two-hybrid fusion (pGBT9 and pGAD424), P0A9R7 1-222 (protein)
chain: MIRFEHVSKAYLGGRQALQGVTFHMQPGEMAFLTGHSGAGKSTLLKLICGIERPSAGKIWFSGHDITRLKNREVPFLRRQIGMIFQDHHLLMDRTVYDNVAIPLIIAGASGDDIRRRVSAALDKVGLLDKAKNFPIQLSGGEQQRVGIARAVVNKPAVLLADEPTGNLDDALSEGILRLFEEFNRVGVTVLMATHDINLISRRSYRMLTLSDGHLHGGVGHE
